Laboratory results reported in patent publication US20160068576A1.
These are yes or no findings as the source states them, for the method shown. Some binding calls cover weakened binding; strength is not graded here.

The chains behind the UniProt entries cited, without tags or fusion partners.
UniProt Q62667: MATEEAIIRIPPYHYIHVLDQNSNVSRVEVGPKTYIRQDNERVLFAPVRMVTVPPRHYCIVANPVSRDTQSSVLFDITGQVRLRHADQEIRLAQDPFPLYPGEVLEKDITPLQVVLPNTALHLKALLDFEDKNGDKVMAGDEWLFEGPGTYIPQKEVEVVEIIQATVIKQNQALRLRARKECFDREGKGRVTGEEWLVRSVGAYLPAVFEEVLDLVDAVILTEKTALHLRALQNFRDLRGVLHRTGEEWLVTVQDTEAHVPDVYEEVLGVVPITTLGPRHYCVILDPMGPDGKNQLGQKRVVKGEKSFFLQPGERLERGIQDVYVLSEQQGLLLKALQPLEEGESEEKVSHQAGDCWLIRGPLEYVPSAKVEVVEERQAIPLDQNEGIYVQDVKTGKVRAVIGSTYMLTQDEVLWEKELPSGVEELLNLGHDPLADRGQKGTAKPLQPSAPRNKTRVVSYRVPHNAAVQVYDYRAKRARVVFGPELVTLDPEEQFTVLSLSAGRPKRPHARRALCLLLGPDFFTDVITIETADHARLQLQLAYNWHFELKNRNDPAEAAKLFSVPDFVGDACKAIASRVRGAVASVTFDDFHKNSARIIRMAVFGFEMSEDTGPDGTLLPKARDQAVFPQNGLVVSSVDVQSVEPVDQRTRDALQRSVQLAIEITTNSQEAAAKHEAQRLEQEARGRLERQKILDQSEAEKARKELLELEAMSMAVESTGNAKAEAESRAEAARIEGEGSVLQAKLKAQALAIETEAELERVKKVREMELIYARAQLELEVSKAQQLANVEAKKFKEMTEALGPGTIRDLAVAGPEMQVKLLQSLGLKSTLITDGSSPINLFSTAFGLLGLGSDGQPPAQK

Target: recombinant vault particles based on expression of the MVP protein alone (UniProt Q62667)
Experiment: INT packaged into purified vaults used in the liposome assay

binding: binds
B1: INT domain of VPARP (amino acids 1563-1724), recombinant protein (protein, not shown: small tags and cut ends)
chain: CTQHWQDAVPWTELLSLQTEDGFWKLTPELGLILNLNTNGLHSFLKQKGIQSLGVKGRECLLDLIATMLVLQFIRTRLEKEGIVFKSLMKMDDPSISRNIPWAFEAIKQASEWVRRTEGQYPSICPRLELGNDWDSATKQLLGLQPISTVSPLHRVLHYSQG
